In article PMC11009412, “Pathogenic mutations of human phosphorylation sites affect protein–protein interactions” (Nature Communications, 2024):
Substitutions are numbered along the chain they refer to. No constants are given. Whether binding was seen depends on the method and setting. Binding seen in cells or lysates may run through a third protein. Here binding means that the protein was enriched with, or labelled near, the bait; the list need not be complete. For some of these results: A no says only that the protein was not detected with the bait. For some of these results: Sequences can lack the tags named with a protein. One block for each binder: values may come before it.

Legend:
[1] = target: T1, BirA*-FLAG-GATAD1 wild-type (WT) (human) (UniProt Q8WUU5); assay: affinity purification with mass spectrometry; FLAG immunoprecipitation (ANTI-FLAG M2 magnetic beads, 2 h) of BirA*-FLAG-GATAD1 variants from tetracycline-induced Flp-In-293 T-REx lysate (50 mM Tris HCl pH 7.4, 150 mM NaCl, 1 mM EDTA, 1% Triton X-100); control non-induced cells; label-free, triplicates
T1 sequence: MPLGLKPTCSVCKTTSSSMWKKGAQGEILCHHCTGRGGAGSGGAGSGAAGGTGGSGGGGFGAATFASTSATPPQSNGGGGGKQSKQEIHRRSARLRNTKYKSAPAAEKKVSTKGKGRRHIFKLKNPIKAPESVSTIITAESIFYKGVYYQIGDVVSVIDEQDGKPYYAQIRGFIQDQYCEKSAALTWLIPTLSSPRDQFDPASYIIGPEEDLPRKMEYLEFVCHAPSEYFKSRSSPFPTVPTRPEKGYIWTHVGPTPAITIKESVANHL

[2] = target: T2, BirA*-FLAG-GATAD1 S102A (human) (UniProt Q8WUU5); assay: as above
T2 sequence: T1 sequence with S102A

[3] = target: T3, BirA*-FLAG-GATAD1 S102P (human) (UniProt Q8WUU5); assay: as above
T3 sequence: T1 sequence with S102P

[4] = target: T4, BirA*-FLAG-GATAD1 S102D (human) (UniProt Q8WUU5); assay: as above
T4 sequence: T1 sequence with S102D

[5] = target: T5, GATAD1 S102P peptide on cellulose membrane (PRISMA) (human) (UniProt Q8WUU5); assay: affinity purification with mass spectrometry; PRISMA alanine scanning: 15 GATAD1-derived peptides on a cellulose membrane in triplicates, pull-down from HEK-293T lysate, label-free quantification, one-way ANOVA; only the target purified
T5 sequence (peptide): LRNTKYKPAPAAEKK

[6] = target: T6, GATAD1 pS102 peptide, position -1 to alanine (alanine scanning) (human) (UniProt Q8WUU5); assay: as above
T6 sequence (peptide, phosphoserine at 102): LRNTKYASAPAAEKK

[7] = target: T7, GATAD1 pS102 peptide, position -2 to alanine (alanine scanning) (human) (UniProt Q8WUU5); assay: as above
T7 sequence (peptide, phosphoserine at 102): LRNTKAKSAPAAEKK

[8] = target: T8, GATAD1 pS102 peptide, position -3 to alanine (alanine scanning) (human) (UniProt Q8WUU5); assay: as above
T8 sequence (peptide, phosphoserine at 102): LRNTAYKSAPAAEKK

[9] = target: T9, GATAD1 pS102 peptide, position +4 alanine to glycine (alanine scanning) (human) (UniProt Q8WUU5); assay: as above
T9 sequence (peptide, phosphoserine at 102): LRNTKYKSAPAGEKK

[10] = target: T10, GATAD1 aspartic acid mutant (S102D) peptide on cellulose membrane (alanine scanning) (human) (UniProt Q8WUU5); assay: as above
T10 sequence (peptide): LRNTKYKDAPAAEKK

[11] = target: T11, GATAD1 pS102 peptide, position -5 to alanine (alanine scanning) (human) (UniProt Q8WUU5); assay: as above
T11 sequence (peptide, phosphoserine at 102): LRATKYKSAPAAEKK

[12] = target: T12, GATAD1 pS102 peptide, position +5 to alanine (alanine scanning) (human) (UniProt Q8WUU5); assay: as above
T12 sequence (peptide, phosphoserine at 102): LRNTKYKSAPAAAKK

[13] = target: T13, GATAD1 pS102 peptide, position -4 to alanine (alanine scanning) (human) (UniProt Q8WUU5); assay: as above
T13 sequence (peptide, phosphoserine at 102): LRNAKYKSAPAAEKK

[14] = target: T14, GATAD1 pS102 peptide, position +3 alanine to glycine (alanine scanning) (human) (UniProt Q8WUU5); assay: as above
T14 sequence (peptide, phosphoserine at 102): LRNTKYKSAPGAEKK

[15] = target: T15, GATAD1 pS102 peptide, proline in position +2 to alanine (alanine scanning) (human) (UniProt Q8WUU5); assay: as above
T15 sequence (peptide, phosphoserine at 102): LRNTKYKSAAAAEKK

[16] = target: T1, BirA*-FLAG-GATAD1 wild-type (WT) (human); assay: proximity labelling; BioID: BirA*-FLAG-GATAD1 variants in Flp-In-293 cells, tetracycline 24 h, 50 μM biotin overnight, streptavidin-sepharose enrichment, SILAC with label swap

binding [1]: no binding
binding [2]: no binding
binding [3]: no binding
binding [4]: no binding
binding [5]: no binding
binding [6]: binds
binding [7]: binds
binding [8]: binds
binding [9]: binds
binding [10]: no binding
binding [11]: binds
binding [12]: binds
binding [13]: binds
binding [14]: binds
binding [15]: binds
B1: 14-3-3 theta (protein, UniProt P27348 1-245)
chain: MEKTELIQKAKLAEQAERYDDMATCMKAVTEQGAELSNEERNLLSVAYKNVVGGRRSAWRVISSIEQKTDTSDKKLQLIKDYREKVESELRSICTTVLELLDKYLIANATNPESKVFYLKMKGDYFRYLAEVACGDDRKQTIDNSQGAYQEAFDISKKEMQPTHPIRLGLALNFSVFYYEILNNPELACTLAKTAFDEAIAELDTLNEDSYKDSTLIMQLLRDNLTLWTSDSAGEECDAAEGAEN

binding [1]: no binding
binding [2]: no binding
binding [3]: no binding
binding [4]: no binding
binding [5]: no binding
binding [6]: binds
binding [7]: binds
binding [8]: binds
binding [9]: binds
binding [10]: no binding
binding [11]: binds
binding [12]: binds
binding [13]: binds
binding [14]: binds
binding [15]: binds
B2: 14-3-3 eta (protein, UniProt Q04917 1-246)
chain: MGDREQLLQRARLAEQAERYDDMASAMKAVTELNEPLSNEDRNLLSVAYKNVVGARRSSWRVISSIEQKTMADGNEKKLEKVKAYREKIEKELETVCNDVLSLLDKFLIKNCNDFQYESKVFYLKMKGDYYRYLAEVASGEKKNSVVEASEAAYKEAFEISKEQMQPTHPIRLGLALNFSVFYYEIQNAPEQACLLAKQAFDDAIAELDTLNEDSYKDSTLIMQLLRDNLTLWTSDQQDEEAGEGN

binding [16]: binds
B3: EMSY (protein, UniProt Q7Z589 1-1322)
chain: MPVVWPTLLDLSRDECKRILRKLELEAYAGVISALRAQGDLTKEKKDLLGELSKVLSISTERHRAEVRRAVNDERLTTIAHNMSGPNSSSEWSIEGRRLVPLMPRLVPQTAFTVTANAVANAAIQHNASLPVPAETGSKEVVCYSYTSTTSTPTSTPVPSGSIATVKSPRPASPASNVVVLPSGSTVYVKSVSCSDEDEKPRKRRRTNSSSSSPVVLKEVPKAVVPVSKTITVPVSGSPKMSNIMQSIANSLPPHMSPVKITFTKPSTQTTNTTTQKVIIVTTSPSSTFVPNILSKSHNYAAVTKLVPTSVIASTTQKPPVVITASQSSLVSNSSSGSSSSTPSPIPNTVAVTAVVSSTPSVVMSTVAQGVSTSAIKMASTRLPSPKSLVSAPTQILAQFPKQHQQSPKQQLYQVQQQTQQQVAQPSPVSHQQQPQQSPLPPGIKPTIQIKQESGVKIITQQVQPSKILPKPVTATLPTSSNSPIMVVSSNGAIMTTKLVTTPTGTQATYTRPTVSPSIGRMAATPGAATYVKTTSGSIITVVPKSLATLGGKIISSNIVSGTTTKITTIPMTSKPNVIVVQKTTGKGTTIQGLPGKNVVTTLLNAGGEKTIQTVPTGAKPAILTATRPITKMIVTQPKGIGSTVQPAAKIIPTKIVYGQQGKTQVLIKPKPVTFQATVVSEQTRQLVTETLQQASRVAEAGNSSIQEGKEEPQNYTDSSSSSTESSQSSQDSQPVVHVIASRRQDWSEHEIAMETSPTIIYQDVSSESQSATSTIKALLELQQTTVKEKLESKPRQPTIDLSQMAVPIQMTQEKRHSPESPSIAVVESELVAEYITTERTDEGTEVAFPLLVSHRSQPQQPSQPQRTLLQHVAQSQTATQTSVVVKSIPASSPGAITHIMQQALSSHTAFTKHSEELGTEEGEVEEMDTLDPQTGLFYRSALTQSQSAKQQKLSQPPLEQTQLQVKTLQCFQTKQKQTIHLQADQLQHKLPQMPQLSIRHQKLTPLQQEQAQPKPDVQHTQHPMVAKDRQLPTLMAQPPQTVVQVLAVKTTQQLPKLQQAPNQPKIYVQPQTPQSQMSLPASSEKQTASQVEQPIITQGSSVTKITFEGRQPPTVTKITGGSSVPKLTSPVTSISPIQASEKTAVSDILKMSLMEAQIDTNVEHMIVDPPKKALATSMLTGEAGSLPSTHMVVAGMANSTPQQQKCRESCSSPSTVGSSLTTRKIDPPAVPATGQFMRIQNVGQKKAEESPAEIIIQAIPQYAIPCHSSSNVVVEPSGLLELNNFTSQQLDDEETAMEQDIDSSTEDGTEPSPSQSSAERS
